Experimental data: patent publication US20210015891A1
Results are given in words; binding and its absence hold for the method and conditions named. Some entries that bind do so weakly or less than the wild type.

T1: Mouse IL-18BP (amino acids 31-194) (mouse) (UniProt Q9Z0M9)
T1 sequence (chain, biotin on the AviTag (enzymatic biotinylation)): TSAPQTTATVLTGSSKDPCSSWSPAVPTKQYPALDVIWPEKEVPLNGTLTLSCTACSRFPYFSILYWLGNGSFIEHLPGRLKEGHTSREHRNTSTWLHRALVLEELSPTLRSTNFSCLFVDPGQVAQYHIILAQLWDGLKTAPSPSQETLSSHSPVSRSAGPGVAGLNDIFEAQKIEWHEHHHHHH

T2: Mouse IL-18Rα ectodomain (amino acids 19-329) (mouse) (UniProt Q61098)
T2 sequence (chain, biotin on the AviTag (enzymatic biotinylation)): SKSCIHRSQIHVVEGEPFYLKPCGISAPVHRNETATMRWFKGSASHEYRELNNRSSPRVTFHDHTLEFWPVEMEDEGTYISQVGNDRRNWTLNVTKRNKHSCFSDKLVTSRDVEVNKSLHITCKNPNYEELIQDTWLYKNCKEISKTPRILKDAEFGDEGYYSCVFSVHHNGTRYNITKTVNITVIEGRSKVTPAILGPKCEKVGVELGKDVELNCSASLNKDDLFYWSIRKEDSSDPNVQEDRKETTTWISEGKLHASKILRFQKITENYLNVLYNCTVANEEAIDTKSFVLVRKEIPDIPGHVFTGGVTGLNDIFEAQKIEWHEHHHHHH


Experiments:
[1] = molecular target: T1, Mouse IL-18BP (amino acids 31-194) (mouse); experiment: SPR, immobilized biotinylated mIL-18BP, recombinant mIL-18 as analyte, single-cycle injections of 0.125 to 2 nM
[2] = molecular target: T2, Mouse IL-18Rα ectodomain (amino acids 19-329) (mouse); experiment: flow cytometry binding isotherm: yeast-displayed mouse IL-18 variant stained with titrated mIL-18Rα, 10^-9.5 to 10^-6 M, receptor binding (% max)
[3] = molecular target: T1, Mouse IL-18BP (amino acids 31-194) (mouse); experiment: flow cytometry binding isotherm: yeast-displayed mouse IL-18 variant stained with titrated mIL-18BP, 10^-9.5 to 10^-6 M, receptor binding (% max)
[4] = molecular target: T2, Mouse IL-18Rα ectodomain (amino acids 19-329) (mouse); experiment: on-yeast binding isotherm, flow cytometry (FIG. 11A)
[5] = molecular target: T2, Mouse IL-18Rα ectodomain (amino acids 19-329) (mouse); experiment: yeast binding isotherms and SPR

| Binder | binding [1] | binding [2] | binding [3] | binding [4] | binding [5] |
| --- | --- | --- | --- | --- | --- |
| mA7, murine DR-IL-18 variant (ligand) YFGRLHCTTAVIRNINDQVLFVDKRQPVFEDMTDIDQSASEPQTRLIIYAYGDNRVRGKAVTLSVKDSKMSTLSCKNKIISFEEMDPPENIDDIQSDLIFFQKRVPGHNKMEFESSLYEGHFLACQKEDDAFKLILKKKDENGDKSVMFTLTNLHQS | – | binds | – | binds | binds |
| mB1, murine DR-IL-18 variant (ligand) HFGRLHCTTAVIRNINDQVLFVDKRQPVFEDMTDIDQSASEPQTRLIIYGYADSDARAKAVTLSVKDSKMSTLSCKNKIISFEEMDPPENIDDIQSDLIFFQKSVPGHNKMEFESSLYEGHFLACQKEDDAFKLILKKKDENGDKSVMFTVTNLHQS | – | binds | – | binds | binds |
| mC1, murine DR-IL-18 variant (ligand) NFGRLHCTTAVIRNINDQVLFVDKRQPVFEDMTDIDQSASEPQTRLIIYAYVDRRLRGKAVTLSVKDSKMSTLSCKNKIISFEEMDPPENIDDIQSDLIFFQKKVPGHNKMEFESSLYEGHFLACQKEDDAFKLILKKKDENGDKSVMFTLTNLHQS | – | binds | – | binds | binds |

Now from value to binder:

| binding [1] | binding [2] | binding [3] | binding [4] | binding [5] | Binder |
| --- | --- | --- | --- | --- | --- |
| binds | binds | binds | – | – | mouse Interleukin-18 wild type (mature form) (ligand) NFGRLHCTTAVIRNINDQVLFVDKRQPVFEDMTDIDQSASEPQTRLIIYMYKDSEVRGLAVTLSVKDSKMSTLSCKNKIISFEEMDPPENIDDIQSDLIFFQKRVPGHNKMEFESSLYEGHFLACQKEDDAFKLILKKKDENGDKSVMFTLTNLHQS |
| – | binds | – | binds | binds | mE8, murine DR-IL-18 variant (ligand) NFGRLHCTTAVIRNINDQVLFVDKRQPVFEDMTDIDQSASEPQTRLIIYVYTDGRRRGKAVTLSVKDSKMSTLSCKNKIISFEEMDPPENIDDIQSDLIFFQKKVPGHDKMEFESSLYEGHFLACQKEDDAFKLILKKKDENGDKSVMFTLTNLHQS |
| – | binds | – | binds | binds | mCS2, murine DR-IL-18 consensus variant (ligand) HFGRLHCTTAVIRNINDQVLFVDKRQPVFEDMTDIDQSASEPQTRLIIYAYGDSRARGKAVTLSVKDSKMSTLSCKNKIISFEEMDPPENIDDIQSDLIFFQKRVPGHNKMEFESSLYEGHFLACQKEDDAFKLILKKKDENGDKSVMFTLTNLHQS |
| – | binds | – | binds | binds | mCS1, murine DR-IL-18 consensus variant (ligand) NFGRLHCTTAVIRNINDQVLFVDKRQPVFEDMTDIDQSASEPQTRLIIYGYADSRVRGKAVTLSVKDSKMSTLSCKNKIISFEEMDPPENIDDIQSDLIFFQKRVPGHNKMEFESSLYEGHFLACQKEDDAFKLILKKKDENGDKSVMFTLTNLHQS |
